# Data reported in the supplement of paper PMC8728848.
# The list shows a part of the results.
# B1: Mincle (Bos taurus) (protein)
# chain: MNSSTSPASQTERRCFSFQLFSWAIAGTSILLLSACFITRCVVTYSIFQLCDEKKFQPPGDSMELSCYNDGSGSVKNCCPLKWFHFQSSCYLFSPDTMSWRASLKNCSSMGAHLVVINTQEEQEFLYYTKPRKKEFYIGLTDQVTEGQWQWVDGTPFTKSLSFWDAGEPNNLVIVEDCATIRDSSNPRQNWNDVPCFFNMFRVCEMPERKI
# Experiments:
# Experiment in all cases: glycan array binding signal (z-score within array); higher = stronger binding
# Conditions in all cases: glycan notation: IUPAC condensed, linker removed
# [1] = molecular target: Gal(b1-4)GlcNAc(b1-3)Gal(b1-4)GlcNAc(b1-3)Gal(b1-4)GlcNAc(b1-3)Gal(b1-4)GlcNAc(b1-2)Man(a1-3)[Gal(b1-4)GlcNAc(b1-3)Gal(b1-4)GlcNAc(b1-3)Gal(b1-4)GlcNAc(b1-3)Gal(b1-4)GlcNAc(b1-2)Man(a1-6)]Man(b1-4)GlcNAc(b1-4)[Fuc(a1-6)]GlcNAc
# Summary of the method: (§1)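 The binding signal is a Z-score computed within each array and averaged over linkers. Arrays of the same protein sequence at different concentrations or buffers were also averaged together. Data originate from 3228 arrays in the Consortium for Functional Glycomics database, kept only where the protein sequence was available.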
# [2] = molecular target: Gal(b1-4)GlcNAc(b1-3)Gal(b1-4)GlcNAc(b1-3)Gal(b1-4)GlcNAc(b1-3)Gal(b1-4)GlcNAc(b1-2)[Gal(b1-4)GlcNAc(b1-3)Gal(b1-4)GlcNAc(b1-3)Gal(b1-4)GlcNAc(b1-3)Gal(b1-4)GlcNAc(b1-6)]Man(a1-6)[Gal(b1-4)GlcNAc(b1-3)Gal(b1-4)GlcNAc(b1-3)Gal(b1-4)GlcNAc(b1-3)Gal(b1-4)GlcNAc(b1-2)Man(a1-3)]Man(b1-4)GlcNAc(b1-4)[Fuc(a1-6)]GlcNAc
# Summary of the method: as §1
# [3] = molecular target: Gal(b1-4)GlcNAc(b1-3)Gal(b1-4)GlcNAc(b1-3)Gal(b1-4)GlcNAc(b1-3)Gal(b1-4)GlcNAc(b1-3)Gal(b1-4)GlcNAc(b1-2)Man(a1-3)[Gal(b1-4)GlcNAc(b1-3)Gal(b1-4)GlcNAc(b1-3)Gal(b1-4)GlcNAc(b1-3)Gal(b1-4)GlcNAc(b1-3)Gal(b1-4)GlcNAc(b1-2)Man(a1-6)]Man(b1-4)GlcNAc(b1-4)GlcNAc
# Summary of the method: as §1
# [4] = molecular target: Gal(b1-4)GlcNAc(b1-3)Gal(b1-4)GlcNAc(b1-3)Gal(b1-4)GlcNAc(b1-3)Gal(b1-4)GlcNAc(b1-3)Gal(b1-4)GlcNAc(b1-2)Man(a1-3)[Gal(b1-4)GlcNAc(b1-3)Gal(b1-4)GlcNAc(b1-3)Gal(b1-4)GlcNAc(b1-3)Gal(b1-4)GlcNAc(b1-3)Gal(b1-4)GlcNAc(b1-2)Man(a1-6)]Man(b1-4)GlcNAc(b1-4)[Fuc(a1-6)]GlcNAc
# Summary of the method: as §1
# [5] = molecular target: Gal(b1-4)GlcNAc(b1-3)Gal(b1-4)GlcNAc(b1-3)Gal(b1-4)GlcNAc(b1-3)Gal(b1-4)GlcNAc(b1-3)Gal(b1-4)GlcNAc(b1-2)[Gal(b1-4)GlcNAc(b1-3)Gal(b1-4)GlcNAc(b1-3)Gal(b1-4)GlcNAc(b1-3)Gal(b1-4)GlcNAc(b1-3)Gal(b1-4)GlcNAc(b1-6)]Man(a1-6)[Gal(b1-4)GlcNAc(b1-3)Gal(b1-4)GlcNAc(b1-3)Gal(b1-4)GlcNAc(b1-3)Gal(b1-4)GlcNAc(b1-3)Gal(b1-4)GlcNAc(b1-2)Man(a1-3)]Man(b1-4)GlcNAc(b1-4)[Fuc(a1-6)]GlcNAc
# Summary of the method: as §1
# [6] = molecular target: Gal(b1-4)GlcNAc(b1-3)Gal(b1-4)GlcNAc(b1-3)Gal(b1-4)GlcNAc(b1-3)Gal(b1-4)GlcNAc(b1-3)Gal(b1-4)GlcNAc(b1-3)Gal(b1-4)GlcNAc(b1-2)Man(a1-3)[Gal(b1-4)GlcNAc(b1-3)Gal(b1-4)GlcNAc(b1-3)Gal(b1-4)GlcNAc(b1-3)Gal(b1-4)GlcNAc(b1-3)Gal(b1-4)GlcNAc(b1-3)Gal(b1-4)GlcNAc(b1-2)Man(a1-6)]Man(b1-4)GlcNAc(b1-4)GlcNAc
# Summary of the method: as §1
# [7] = molecular target: Gal(b1-4)GlcNAc(b1-3)Gal(b1-4)GlcNAc(b1-3)GalNAc
# Summary of the method: as §1
# [8] = molecular target: Gal(b1-4)GlcNAc(b1-3)Gal(b1-4)GlcNAc(b1-3)[Gal(b1-4)GlcNAc(b1-3)Gal(b1-4)GlcNAc(b1-6)]GalNAc
# Summary of the method: as §1
# [9] = molecular target: Gal(b1-4)GlcNAc(b1-3)Gal(b1-4)GlcNAc(b1-6)[Gal(b1-3)]GalNAc
# Summary of the method: as §1
# [10] = molecular target: Gal(b1-4)GlcNAc(b1-3)Gal(b1-4)[Fuc(a1-3)]GlcNAc(b1-3)Gal(b1-4)[Fuc(a1-3)]GlcNAc
# Summary of the method: as §1
# [11] = molecular target: Gal(b1-4)GlcNAc(b1-3)GalNAc
# Summary of the method: as §1
# [12] = molecular target: Gal(b1-4)GlcNAc(b1-3)[Fuc(a1-3)GlcNAc(b1-6)]Gal(b1-4)Glc
# Summary of the method: as §1
# [13] = molecular target: Gal(b1-4)GlcNAc(b1-3)[Gal(b1-4)GlcNAc(b1-6)]Gal(b1-4)GlcNAc
# Summary of the method: as §1
# [14] = molecular target: Gal(b1-4)GlcNAc(b1-3)[GlcNAc(b1-6)]Gal(b1-4)GlcNAc
# Summary of the method: as §1
# [15] = molecular target: Gal(b1-4)GlcNAc(b1-6)Gal(b1-4)GlcNAc
# Summary of the method: as §1
# [16] = molecular target: Gal(b1-4)GlcNAc(b1-6)GalNAc
# Summary of the method: as §1
# [17] = molecular target: Gal(b1-4)GlcNAc(b1-6)[Gal(b1-3)]GalNAc
# Summary of the method: as §1
# [18] = molecular target: Gal(b1-4)GlcNAc(b1-6)[Gal(b1-4)GlcNAc(b1-3)]GalNAc
# Summary of the method: as §1
# Gal(b1-4)GlcNAc6P = molecular target: Gal(b1-4)GlcNAc6P
# Summary of the method: as §1
# Gal(b1-6)Gal = molecular target: Gal(b1-6)Gal
# Summary of the method: as §1
# Gal3S(b1-3)GalNAc = molecular target: Gal3S(b1-3)GalNAc
# Summary of the method: as §1
# Gal3S(b1-3)GlcNAc = molecular target: Gal3S(b1-3)GlcNAc
# Summary of the method: as §1
# [19] = molecular target: Gal3S(b1-3)[Fuc(a1-4)]GlcNAc
# Summary of the method: as §1
binder,measurement,setting,value
B1,glycan array binding signal (z-score),[1],0.986
same,glycan array binding signal (z-score),[2],0.441
same,glycan array binding signal (z-score),[3],-0.325
same,glycan array binding signal (z-score),[4],-0.151
same,glycan array binding signal (z-score),[5],0.237
same,glycan array binding signal (z-score),[6],0.667
same,glycan array binding signal (z-score),[7],2.55
same,glycan array binding signal (z-score),[8],2.3
same,glycan array binding signal (z-score),[9],0.9
same,glycan array binding signal (z-score),[10],-0.437
same,glycan array binding signal (z-score),[11],0.177
same,glycan array binding signal (z-score),[12],-0.38
same,glycan array binding signal (z-score),[13],-1.01
same,glycan array binding signal (z-score),[14],-1.11
same,glycan array binding signal (z-score),[15],-0.745
same,glycan array binding signal (z-score),[16],0.406
same,glycan array binding signal (z-score),[17],-0.8
same,glycan array binding signal (z-score),[18],-0.524
same,glycan array binding signal (z-score),Gal(b1-4)GlcNAc6P,-0.685
same,glycan array binding signal (z-score),Gal(b1-6)Gal,-0.928
same,glycan array binding signal (z-score),Gal3S(b1-3)GalNAc,-0.61
same,glycan array binding signal (z-score),Gal3S(b1-3)GlcNAc,-0.963
same,glycan array binding signal (z-score),[19],3.35

# Part of the list above, tab-delimited.
binder	measurement	setting	value
B1	glycan array binding signal (z-score)	[8]	2.3
same	glycan array binding signal (z-score)	[9]	0.9
